Assay results as given in the supplement of paper PMC7666118.
The list shows a part of the results.

Amino acid sequences for entries named in this document (tags omitted). A change or cut given only in a name is not applied to a line headed by its entry.
UniProt Q9UPU7: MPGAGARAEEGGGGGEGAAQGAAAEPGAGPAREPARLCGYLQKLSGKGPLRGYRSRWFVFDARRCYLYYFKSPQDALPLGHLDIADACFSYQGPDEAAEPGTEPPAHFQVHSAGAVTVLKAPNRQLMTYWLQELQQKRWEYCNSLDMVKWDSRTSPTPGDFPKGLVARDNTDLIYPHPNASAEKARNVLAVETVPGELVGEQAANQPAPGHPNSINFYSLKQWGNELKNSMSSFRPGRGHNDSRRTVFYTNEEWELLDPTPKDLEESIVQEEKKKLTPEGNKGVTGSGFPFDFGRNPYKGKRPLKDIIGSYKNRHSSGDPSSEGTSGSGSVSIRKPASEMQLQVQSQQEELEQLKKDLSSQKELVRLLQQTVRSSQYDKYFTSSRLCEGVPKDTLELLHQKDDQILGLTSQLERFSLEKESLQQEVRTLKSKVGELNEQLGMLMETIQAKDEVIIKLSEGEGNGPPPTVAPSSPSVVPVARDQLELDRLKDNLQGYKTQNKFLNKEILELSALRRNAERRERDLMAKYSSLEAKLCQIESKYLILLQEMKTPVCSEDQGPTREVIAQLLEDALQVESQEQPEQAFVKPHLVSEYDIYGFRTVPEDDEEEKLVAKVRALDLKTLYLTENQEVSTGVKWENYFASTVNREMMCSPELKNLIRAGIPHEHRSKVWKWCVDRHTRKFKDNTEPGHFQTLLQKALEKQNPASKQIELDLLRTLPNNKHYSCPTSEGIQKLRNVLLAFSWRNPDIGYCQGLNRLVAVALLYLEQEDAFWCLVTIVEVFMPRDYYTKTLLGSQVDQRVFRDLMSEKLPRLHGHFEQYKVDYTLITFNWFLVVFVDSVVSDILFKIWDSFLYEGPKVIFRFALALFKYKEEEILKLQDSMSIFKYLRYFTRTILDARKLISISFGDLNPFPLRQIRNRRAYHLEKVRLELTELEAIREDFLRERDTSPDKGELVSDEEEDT
UniProt Q9Y5M8: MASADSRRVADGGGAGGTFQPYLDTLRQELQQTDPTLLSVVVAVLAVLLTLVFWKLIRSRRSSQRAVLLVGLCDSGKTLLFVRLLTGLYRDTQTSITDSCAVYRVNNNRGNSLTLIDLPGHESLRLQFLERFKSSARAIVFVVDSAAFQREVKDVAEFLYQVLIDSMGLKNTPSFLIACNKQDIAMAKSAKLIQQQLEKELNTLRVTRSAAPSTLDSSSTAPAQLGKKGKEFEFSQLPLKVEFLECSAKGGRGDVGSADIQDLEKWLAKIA
UniProt P42224: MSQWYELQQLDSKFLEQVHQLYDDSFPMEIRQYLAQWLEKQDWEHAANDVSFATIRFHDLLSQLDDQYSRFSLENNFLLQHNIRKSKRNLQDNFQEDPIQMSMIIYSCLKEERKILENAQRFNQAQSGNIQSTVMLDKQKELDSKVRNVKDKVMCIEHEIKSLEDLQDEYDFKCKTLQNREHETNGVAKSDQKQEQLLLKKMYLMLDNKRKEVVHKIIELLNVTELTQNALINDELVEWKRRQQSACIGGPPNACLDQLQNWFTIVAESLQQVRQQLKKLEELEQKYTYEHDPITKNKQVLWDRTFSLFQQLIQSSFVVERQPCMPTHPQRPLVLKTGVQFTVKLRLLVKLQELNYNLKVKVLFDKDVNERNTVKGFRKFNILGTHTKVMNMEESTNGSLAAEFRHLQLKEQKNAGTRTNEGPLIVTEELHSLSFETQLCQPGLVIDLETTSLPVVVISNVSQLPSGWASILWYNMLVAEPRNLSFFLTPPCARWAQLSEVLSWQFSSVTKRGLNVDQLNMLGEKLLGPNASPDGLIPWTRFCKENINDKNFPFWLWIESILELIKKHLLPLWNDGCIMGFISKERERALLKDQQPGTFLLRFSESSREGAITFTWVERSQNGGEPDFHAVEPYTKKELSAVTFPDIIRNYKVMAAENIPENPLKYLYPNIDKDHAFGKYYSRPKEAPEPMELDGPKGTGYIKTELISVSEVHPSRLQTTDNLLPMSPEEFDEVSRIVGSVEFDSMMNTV
UniProt Q6YHU6: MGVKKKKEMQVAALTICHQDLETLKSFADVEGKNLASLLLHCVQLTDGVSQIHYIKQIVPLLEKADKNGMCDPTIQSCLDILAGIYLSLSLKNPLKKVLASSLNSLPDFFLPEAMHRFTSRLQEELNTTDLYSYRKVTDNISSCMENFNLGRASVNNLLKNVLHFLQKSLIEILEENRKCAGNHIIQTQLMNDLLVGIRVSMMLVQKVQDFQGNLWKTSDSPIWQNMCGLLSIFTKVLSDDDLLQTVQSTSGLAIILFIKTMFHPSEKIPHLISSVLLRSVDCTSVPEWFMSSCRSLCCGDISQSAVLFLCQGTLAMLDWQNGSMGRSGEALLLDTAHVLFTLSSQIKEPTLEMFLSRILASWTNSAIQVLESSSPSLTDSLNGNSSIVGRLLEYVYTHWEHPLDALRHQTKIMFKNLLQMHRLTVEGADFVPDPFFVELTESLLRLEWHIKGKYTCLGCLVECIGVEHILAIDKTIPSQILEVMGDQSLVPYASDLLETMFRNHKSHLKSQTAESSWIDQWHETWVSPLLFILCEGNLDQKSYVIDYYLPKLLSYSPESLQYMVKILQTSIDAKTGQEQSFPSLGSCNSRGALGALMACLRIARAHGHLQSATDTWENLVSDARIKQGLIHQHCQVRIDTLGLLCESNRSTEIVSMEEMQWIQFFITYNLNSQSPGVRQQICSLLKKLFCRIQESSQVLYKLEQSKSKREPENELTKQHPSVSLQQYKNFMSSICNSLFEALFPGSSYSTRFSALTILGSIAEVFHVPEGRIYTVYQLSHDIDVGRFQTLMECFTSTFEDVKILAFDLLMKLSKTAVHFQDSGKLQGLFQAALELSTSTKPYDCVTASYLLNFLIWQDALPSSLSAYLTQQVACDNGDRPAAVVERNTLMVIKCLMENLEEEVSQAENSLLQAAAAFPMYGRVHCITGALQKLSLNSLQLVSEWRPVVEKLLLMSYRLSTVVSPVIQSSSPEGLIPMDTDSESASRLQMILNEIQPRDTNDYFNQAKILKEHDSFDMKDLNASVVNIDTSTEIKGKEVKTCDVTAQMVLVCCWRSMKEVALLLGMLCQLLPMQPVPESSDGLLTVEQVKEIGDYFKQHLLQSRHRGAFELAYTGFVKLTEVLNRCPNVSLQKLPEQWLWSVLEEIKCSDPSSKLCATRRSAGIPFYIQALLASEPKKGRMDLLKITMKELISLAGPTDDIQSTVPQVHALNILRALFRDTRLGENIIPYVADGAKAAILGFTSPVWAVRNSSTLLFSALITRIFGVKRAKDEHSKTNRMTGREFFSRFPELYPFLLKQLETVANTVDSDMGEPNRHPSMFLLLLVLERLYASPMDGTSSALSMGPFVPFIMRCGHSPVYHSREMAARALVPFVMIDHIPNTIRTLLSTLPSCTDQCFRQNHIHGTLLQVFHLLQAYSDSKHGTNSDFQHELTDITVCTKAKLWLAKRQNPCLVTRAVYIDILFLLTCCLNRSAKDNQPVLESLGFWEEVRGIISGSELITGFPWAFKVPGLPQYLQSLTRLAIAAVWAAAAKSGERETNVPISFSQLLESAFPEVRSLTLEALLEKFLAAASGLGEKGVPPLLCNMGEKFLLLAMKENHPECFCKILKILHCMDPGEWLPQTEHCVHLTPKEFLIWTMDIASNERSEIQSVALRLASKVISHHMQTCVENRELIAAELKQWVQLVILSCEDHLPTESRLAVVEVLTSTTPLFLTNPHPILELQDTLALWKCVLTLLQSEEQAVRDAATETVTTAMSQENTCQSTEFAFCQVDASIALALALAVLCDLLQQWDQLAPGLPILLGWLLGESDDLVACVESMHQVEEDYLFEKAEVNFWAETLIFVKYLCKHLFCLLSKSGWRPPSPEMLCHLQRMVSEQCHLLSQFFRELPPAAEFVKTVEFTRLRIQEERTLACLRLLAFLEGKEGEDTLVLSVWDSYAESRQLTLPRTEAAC
UniProt Q9Y657, whole entry: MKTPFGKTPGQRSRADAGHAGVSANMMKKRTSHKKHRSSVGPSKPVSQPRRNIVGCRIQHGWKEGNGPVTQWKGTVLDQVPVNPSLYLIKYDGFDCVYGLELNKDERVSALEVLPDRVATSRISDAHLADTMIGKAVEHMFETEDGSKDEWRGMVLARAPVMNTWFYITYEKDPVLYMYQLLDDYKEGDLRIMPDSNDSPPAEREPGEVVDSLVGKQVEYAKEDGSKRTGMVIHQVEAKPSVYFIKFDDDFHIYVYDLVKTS
UniProt Q9NP77: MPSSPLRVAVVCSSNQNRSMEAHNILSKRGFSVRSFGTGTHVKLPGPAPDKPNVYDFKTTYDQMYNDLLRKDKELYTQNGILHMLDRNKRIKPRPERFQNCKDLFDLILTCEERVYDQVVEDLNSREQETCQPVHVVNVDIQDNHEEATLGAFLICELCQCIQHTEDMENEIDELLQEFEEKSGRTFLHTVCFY
UniProt Q96SB4, whole entry: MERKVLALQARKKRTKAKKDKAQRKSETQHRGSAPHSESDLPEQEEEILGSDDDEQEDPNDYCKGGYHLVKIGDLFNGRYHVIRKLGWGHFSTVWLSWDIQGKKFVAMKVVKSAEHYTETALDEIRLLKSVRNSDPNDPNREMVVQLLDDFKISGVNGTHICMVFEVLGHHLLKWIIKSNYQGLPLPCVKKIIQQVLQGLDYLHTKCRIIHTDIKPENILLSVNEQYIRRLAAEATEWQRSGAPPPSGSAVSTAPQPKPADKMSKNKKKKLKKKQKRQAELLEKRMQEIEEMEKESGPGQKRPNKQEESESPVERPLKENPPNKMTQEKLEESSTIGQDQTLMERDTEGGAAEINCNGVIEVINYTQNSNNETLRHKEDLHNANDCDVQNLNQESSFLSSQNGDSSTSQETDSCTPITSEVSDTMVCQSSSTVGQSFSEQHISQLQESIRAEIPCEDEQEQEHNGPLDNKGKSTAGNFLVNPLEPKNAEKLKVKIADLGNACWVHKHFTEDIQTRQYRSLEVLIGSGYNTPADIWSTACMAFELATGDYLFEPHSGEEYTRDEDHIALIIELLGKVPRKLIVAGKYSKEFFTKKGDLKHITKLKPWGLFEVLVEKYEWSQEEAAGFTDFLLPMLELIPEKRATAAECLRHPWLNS
UniProt P56962: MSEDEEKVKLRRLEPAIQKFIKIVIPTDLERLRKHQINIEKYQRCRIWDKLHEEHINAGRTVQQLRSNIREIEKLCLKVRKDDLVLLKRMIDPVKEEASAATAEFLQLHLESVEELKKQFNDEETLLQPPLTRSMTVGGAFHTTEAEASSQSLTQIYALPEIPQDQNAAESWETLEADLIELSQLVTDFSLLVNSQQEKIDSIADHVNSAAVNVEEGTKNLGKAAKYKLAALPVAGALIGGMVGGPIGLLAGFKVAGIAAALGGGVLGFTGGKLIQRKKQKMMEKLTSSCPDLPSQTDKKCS
UniProt P50502: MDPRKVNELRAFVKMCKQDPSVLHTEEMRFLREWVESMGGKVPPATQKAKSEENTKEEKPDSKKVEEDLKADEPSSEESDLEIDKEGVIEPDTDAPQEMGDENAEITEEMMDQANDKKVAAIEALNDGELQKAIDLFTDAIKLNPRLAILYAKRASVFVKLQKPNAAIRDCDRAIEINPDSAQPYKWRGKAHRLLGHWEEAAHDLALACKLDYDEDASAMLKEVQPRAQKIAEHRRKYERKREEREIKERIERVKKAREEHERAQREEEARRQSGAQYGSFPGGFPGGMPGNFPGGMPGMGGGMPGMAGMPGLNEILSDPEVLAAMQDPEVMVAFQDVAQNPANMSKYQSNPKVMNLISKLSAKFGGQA
UniProt Q15527: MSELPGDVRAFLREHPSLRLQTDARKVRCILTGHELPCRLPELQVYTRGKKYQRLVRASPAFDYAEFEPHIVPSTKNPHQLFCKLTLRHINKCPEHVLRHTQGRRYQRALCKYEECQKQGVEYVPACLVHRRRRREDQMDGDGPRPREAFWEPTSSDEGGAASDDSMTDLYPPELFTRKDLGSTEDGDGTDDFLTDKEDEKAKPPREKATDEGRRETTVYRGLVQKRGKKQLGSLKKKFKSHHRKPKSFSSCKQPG
UniProt Q8TCT8: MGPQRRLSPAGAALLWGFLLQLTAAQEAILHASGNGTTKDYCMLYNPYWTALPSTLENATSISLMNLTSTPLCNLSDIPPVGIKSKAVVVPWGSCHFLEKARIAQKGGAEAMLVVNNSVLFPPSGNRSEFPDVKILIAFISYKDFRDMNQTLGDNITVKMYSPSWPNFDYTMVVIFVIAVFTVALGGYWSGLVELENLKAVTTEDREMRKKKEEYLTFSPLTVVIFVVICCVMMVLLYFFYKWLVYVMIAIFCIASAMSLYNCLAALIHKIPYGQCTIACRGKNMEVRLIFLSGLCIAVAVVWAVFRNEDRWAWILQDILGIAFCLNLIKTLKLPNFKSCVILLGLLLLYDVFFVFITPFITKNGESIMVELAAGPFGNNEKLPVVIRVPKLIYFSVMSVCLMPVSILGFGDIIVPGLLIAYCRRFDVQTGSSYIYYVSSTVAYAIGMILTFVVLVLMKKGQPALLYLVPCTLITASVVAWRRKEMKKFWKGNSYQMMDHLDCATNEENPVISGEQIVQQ

Each target was assayed with COc1ccc(Cn2ccc3cc(C)c(C(=O)NO)cc32)cc1 (assay: dose-dependent thermal stabilisation call (2D-TPP, DLPTP, 10% FDR) (binary (1 = stabilised)); higher = stabilised by the compound). Conditions: system: HL-60 intact cells; concentration range 0.04-10 µM.
Description: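 2D thermal proteome profiling in intact HL-60 cells treated with BRD-3811 (0, 0.04, 0.29, 2, 10 uM) for 90 min at 37 C, then heated 3 min at one of 12 temperatures (42-63.9 C). Soluble protein was quantified by TMT10 MS. The value is the DLPTP call of the paper: dose-dependent thermal stabilisation over all temperatures at 10% FDR (F-test of a dose-response against a flat model); one experiment, one call per tested protein.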

| Target | dose-dependent thermal stabilisation call |
| --- | --- |
| TBC1D10B (UniProt Q4KMP7) | inactive: 0 |
| SRD5A3 (UniProt Q9H8P0) | inactive: 0 |
| TBC1D2B (UniProt Q9UPU7) | inactive: 0 |
| SPINT1 (UniProt O43278) | inactive: 0 |
| TFR2 (UniProt Q9UP52) | inactive: 0 |
| STK24 (UniProt Q9Y6E0) | inactive: 0 |
| SPATA5L1 (UniProt Q9BVQ7) | inactive: 0 |
| SYNE1 (UniProt Q8NF91) | inactive: 0 |
| SRPRB (UniProt Q9Y5M8) | inactive: 0 |
| STAT1 (UniProt P42224) | inactive: 0 |
| ST3GAL6 (UniProt Q9Y274) | inactive: 0 |
| SUPV3L1 (UniProt Q8IYB8) | inactive: 0 |
| THADA (UniProt Q6YHU6) | inactive: 0 |
| SUPT16H (UniProt Q9Y5B9) | inactive: 0 |
| SPIN1 (UniProt Q9Y657) | inactive: 0 |
| STX18 (UniProt Q9P2W9) | inactive: 0 |
| SRRM2 (UniProt Q9UQ35) | inactive: 0 |
| SPTAN1 (UniProt Q13813) | inactive: 0 |

| Target | dose-dependent thermal stabilisation call |
| --- | --- |
| SYPL1 (UniProt Q16563) | inactive: 0 |
| SSU72 (UniProt Q9NP77) | inactive: 0 |
| SURF4 (UniProt O15260) | inactive: 0 |
| SRPK1 (UniProt Q96SB4) | inactive: 0 |
| SRP09 | inactive: 0 |
| STX17 (UniProt P56962) | inactive: 0 |
| SPNS3 (UniProt Q6ZMD2) | inactive: 0 |
| SPRYD3 (UniProt Q8NCJ5) | inactive: 0 |
| STK4 (UniProt Q13043) | inactive: 0 |
| ST13 (UniProt P50502) | inactive: 0 |
| SPNS1 (UniProt Q9H2V7) | inactive: 0 |
| SYTL1 (UniProt Q8IYJ3) | inactive: 0 |
| SOD2 (UniProt P04179) | inactive: 0 |
| SURF2 (UniProt Q15527) | inactive: 0 |
| SRCAP (UniProt Q6ZRS2) | inactive: 0 |
| SPPL2A (UniProt Q8TCT8) | inactive: 0 |
| SRRD (UniProt Q9UH36) | inactive: 0 |
| STK33 (UniProt Q9BYT3) | inactive: 0 |

Part of the list above, with each value named.
SRP09
  dose-dependent thermal stabilisation call: inactive: 0
SRRD (UniProt Q9UH36)
  dose-dependent thermal stabilisation call: inactive: 0
